No constants are given. Whether binding was seen depends on the method and setting. For some of these results: Binding seen in cells or lysates may run through a third protein. Some results given as binding are weak or reduced against the parent protein; the word gives no strength. Sequences can lack the tags named with a protein.
T1: FLAG-conjugated CRK2 (CPK-related protein kinase 2), cell-free (Arabidopsis thaliana) (UniProt Q9LJL9)
T1 sequence: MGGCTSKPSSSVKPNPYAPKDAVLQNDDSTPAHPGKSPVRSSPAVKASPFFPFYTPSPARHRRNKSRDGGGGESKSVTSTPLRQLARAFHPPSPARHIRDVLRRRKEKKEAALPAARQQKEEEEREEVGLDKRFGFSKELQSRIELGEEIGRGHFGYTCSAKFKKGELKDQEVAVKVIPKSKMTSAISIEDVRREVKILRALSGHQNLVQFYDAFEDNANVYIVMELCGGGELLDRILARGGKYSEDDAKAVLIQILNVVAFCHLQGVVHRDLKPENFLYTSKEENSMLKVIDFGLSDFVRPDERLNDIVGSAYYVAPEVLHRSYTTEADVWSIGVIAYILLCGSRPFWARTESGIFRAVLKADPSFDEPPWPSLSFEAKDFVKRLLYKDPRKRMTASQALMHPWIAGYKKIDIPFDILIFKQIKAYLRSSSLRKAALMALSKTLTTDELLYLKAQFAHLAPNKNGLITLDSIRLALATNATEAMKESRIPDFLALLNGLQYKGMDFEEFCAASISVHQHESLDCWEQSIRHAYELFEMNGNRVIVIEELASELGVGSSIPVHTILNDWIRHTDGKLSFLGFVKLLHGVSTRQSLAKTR

T2: FLAG-conjugated CRK3 (CPK-related protein kinase 3), cell-free (Arabidopsis thaliana) (UniProt Q9ZUZ2)
T2 sequence: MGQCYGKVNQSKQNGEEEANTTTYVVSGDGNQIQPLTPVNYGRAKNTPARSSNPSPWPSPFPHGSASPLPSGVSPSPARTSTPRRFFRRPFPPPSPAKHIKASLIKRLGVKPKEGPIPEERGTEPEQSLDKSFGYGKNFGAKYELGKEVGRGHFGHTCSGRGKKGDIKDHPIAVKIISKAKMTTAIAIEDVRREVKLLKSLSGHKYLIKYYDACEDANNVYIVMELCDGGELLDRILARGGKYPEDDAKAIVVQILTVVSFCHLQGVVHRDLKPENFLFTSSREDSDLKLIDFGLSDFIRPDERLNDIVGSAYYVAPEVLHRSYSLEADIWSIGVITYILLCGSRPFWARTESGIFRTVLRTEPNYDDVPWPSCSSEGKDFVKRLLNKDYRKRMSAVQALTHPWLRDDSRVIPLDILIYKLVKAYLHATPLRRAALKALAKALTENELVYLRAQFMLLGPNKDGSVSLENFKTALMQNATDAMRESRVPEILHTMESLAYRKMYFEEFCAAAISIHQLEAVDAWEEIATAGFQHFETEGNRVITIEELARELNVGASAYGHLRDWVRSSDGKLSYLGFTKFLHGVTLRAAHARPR

T3: FLAG-tagged CRK3 (CRK3-FLAG) (Arabidopsis thaliana) (UniProt Q9ZUZ2)
T3 sequence: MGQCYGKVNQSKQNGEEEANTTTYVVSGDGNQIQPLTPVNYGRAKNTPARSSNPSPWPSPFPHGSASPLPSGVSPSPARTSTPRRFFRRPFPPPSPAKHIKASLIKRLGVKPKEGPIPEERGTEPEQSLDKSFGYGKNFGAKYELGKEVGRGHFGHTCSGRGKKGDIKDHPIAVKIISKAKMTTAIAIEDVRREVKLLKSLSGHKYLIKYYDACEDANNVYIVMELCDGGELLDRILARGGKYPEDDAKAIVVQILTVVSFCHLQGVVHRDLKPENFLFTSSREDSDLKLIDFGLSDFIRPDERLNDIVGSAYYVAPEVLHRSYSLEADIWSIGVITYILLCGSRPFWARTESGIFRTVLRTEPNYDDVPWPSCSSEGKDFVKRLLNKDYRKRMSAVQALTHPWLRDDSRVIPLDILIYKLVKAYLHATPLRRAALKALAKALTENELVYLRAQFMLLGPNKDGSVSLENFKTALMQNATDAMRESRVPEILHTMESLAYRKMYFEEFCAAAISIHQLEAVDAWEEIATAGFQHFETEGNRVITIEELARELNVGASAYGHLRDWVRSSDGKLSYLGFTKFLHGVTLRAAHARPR

T4: FLAG-tagged CRK2 (CRK2-FLAG) (Arabidopsis thaliana) (UniProt Q9LJL9)
T4 sequence: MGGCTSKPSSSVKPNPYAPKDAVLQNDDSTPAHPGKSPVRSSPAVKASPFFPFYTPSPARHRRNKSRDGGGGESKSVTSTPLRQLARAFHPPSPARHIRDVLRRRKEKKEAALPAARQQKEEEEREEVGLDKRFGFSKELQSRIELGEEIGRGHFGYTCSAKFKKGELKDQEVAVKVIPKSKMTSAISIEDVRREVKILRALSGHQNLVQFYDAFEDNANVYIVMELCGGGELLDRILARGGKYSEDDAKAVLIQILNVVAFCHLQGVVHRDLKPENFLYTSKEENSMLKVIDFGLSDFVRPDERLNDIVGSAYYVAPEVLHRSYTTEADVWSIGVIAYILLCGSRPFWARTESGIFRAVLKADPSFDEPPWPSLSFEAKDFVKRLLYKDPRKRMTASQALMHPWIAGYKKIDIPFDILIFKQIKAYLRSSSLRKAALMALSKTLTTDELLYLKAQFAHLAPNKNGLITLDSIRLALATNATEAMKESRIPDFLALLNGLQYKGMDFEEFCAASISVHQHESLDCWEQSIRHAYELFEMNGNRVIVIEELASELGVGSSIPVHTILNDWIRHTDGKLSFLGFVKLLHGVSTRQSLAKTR


Key:
[1] = target: T1, FLAG-conjugated CRK2 (CPK-related protein kinase 2), cell-free (Arabidopsis thaliana); experiment: AlphaScreen or HTRF; AlphaScreen luminescence; biotinylated PBL27 and FLAG-conjugated kinases from cell-free synthesis; E. coli dihydrofolate reductase as control protein; n = 3; method per ref. 29
[2] = target: T2, FLAG-conjugated CRK3 (CPK-related protein kinase 3), cell-free (Arabidopsis thaliana); experiment: as above
[3] = target: T3, FLAG-tagged CRK3 (CRK3-FLAG) (Arabidopsis thaliana); experiment: co-IP; PBL27-HA and kinase-FLAG co-expressed in N. benthamiana leaf cells; total proteins precipitated with anti-FLAG (DYKDDDDK) magnetic beads overnight at 4 °C, washed with TBS with 0.5% NP-40; blots with anti-HA and anti-FLAG
[4] = target: T4, FLAG-tagged CRK2 (CRK2-FLAG) (Arabidopsis thaliana); experiment: as above

Binder | binding [1] | binding [2] | binding [3] | binding [4]
biotinylated recombinant PBL27 protein (PBS1-like 27) (enzyme, UniProt Q1PDV6 1-513, biotin (biotin ligation site of the tag)) MSGCLPCFGSSAKDAASKDSVKKELSAKDGSVTQSHHISLDKSKSRRGPEQKKELTAPKEGPTAHIAAQTFTFRELAAATKNFRPECLLGEGGFGRVYKGRLETTGQIVAVKQLDRNGLQGNREFLVEVLMLSLLHHPNLVNLIGYCADGDQRLLVYEYMPLGSLEDHLHDLPPDKEPLDWSTRMTIAAGAAKGLEYLHDKANPPVIYRDLKSSNILLGDGYHPKLSDFGLAKLGPVGDKTHVSTRVMGTYGYCAPEYAMTGQLTLKSDVYSFGVVFLELITGRKAIDNARAPGEHNLVAWARPLFKDRRKFPKMADPSLQGRYPMRGLYQALAVAAMCLQEQAATRPLIGDVVTALTYLASQTFDPNAPSGQNSRSGSGPPFIRTRDDRRSLGDGSSLDSPAETRSRLGSPATHKNSPDYRRRDMVREVNAGSEGGSETGGGSGRKWGLSDLEGQESQRGSPASVGRSSRGTPRNRDLDRERAVAEAKVWGENWRERKRATNGPGSFDSTND | binds | binds |  | 
HA-tagged PBL27 (PBL27-HA) (enzyme, UniProt Q1PDV6 1-513) MSGCLPCFGSSAKDAASKDSVKKELSAKDGSVTQSHHISLDKSKSRRGPEQKKELTAPKEGPTAHIAAQTFTFRELAAATKNFRPECLLGEGGFGRVYKGRLETTGQIVAVKQLDRNGLQGNREFLVEVLMLSLLHHPNLVNLIGYCADGDQRLLVYEYMPLGSLEDHLHDLPPDKEPLDWSTRMTIAAGAAKGLEYLHDKANPPVIYRDLKSSNILLGDGYHPKLSDFGLAKLGPVGDKTHVSTRVMGTYGYCAPEYAMTGQLTLKSDVYSFGVVFLELITGRKAIDNARAPGEHNLVAWARPLFKDRRKFPKMADPSLQGRYPMRGLYQALAVAAMCLQEQAATRPLIGDVVTALTYLASQTFDPNAPSGQNSRSGSGPPFIRTRDDRRSLGDGSSLDSPAETRSRLGSPATHKNSPDYRRRDMVREVNAGSEGGSETGGGSGRKWGLSDLEGQESQRGSPASVGRSSRGTPRNRDLDRERAVAEAKVWGENWRERKRATNGPGSFDSTND |  |  | binds | binds

Source: article PMC10180863
